Patent US20030124602A1
These are yes or no findings as the source states them, for the method shown. For some assays here: In cells and extracts the contact can be indirect. Some results given as binding are weak or reduced against the parent protein; the word gives no strength.

Sequences of proteins named here, by UniProt entry; tags and fusion partners are left off. A change or cut given only in a name is not applied to a line headed by its entry.
UniProt P31748: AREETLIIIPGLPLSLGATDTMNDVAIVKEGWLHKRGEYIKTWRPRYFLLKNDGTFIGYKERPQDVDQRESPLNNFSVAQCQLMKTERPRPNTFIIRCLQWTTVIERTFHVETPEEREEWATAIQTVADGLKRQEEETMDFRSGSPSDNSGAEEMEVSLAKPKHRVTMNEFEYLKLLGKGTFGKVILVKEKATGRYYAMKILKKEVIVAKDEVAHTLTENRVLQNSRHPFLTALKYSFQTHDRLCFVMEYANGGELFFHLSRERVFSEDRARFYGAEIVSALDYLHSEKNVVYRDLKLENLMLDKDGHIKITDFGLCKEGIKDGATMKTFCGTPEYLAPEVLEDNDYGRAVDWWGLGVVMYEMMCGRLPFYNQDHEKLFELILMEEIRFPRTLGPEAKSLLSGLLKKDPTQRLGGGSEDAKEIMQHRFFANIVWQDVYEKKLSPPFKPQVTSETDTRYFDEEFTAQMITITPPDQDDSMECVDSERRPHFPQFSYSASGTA
UniProt Q5T1C6: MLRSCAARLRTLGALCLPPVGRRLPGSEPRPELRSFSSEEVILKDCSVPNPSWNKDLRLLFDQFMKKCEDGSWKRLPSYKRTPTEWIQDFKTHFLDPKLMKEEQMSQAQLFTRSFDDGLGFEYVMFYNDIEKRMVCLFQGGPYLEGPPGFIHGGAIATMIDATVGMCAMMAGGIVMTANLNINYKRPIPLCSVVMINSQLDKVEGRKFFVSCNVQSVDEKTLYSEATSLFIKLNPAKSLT

Key:
[1] = target: v-Akt (viral homologue of c-Akt/PKB, AKT8 retrovirus oncogene product) (AKT8 retrovirus) (UniProt P31748); assay: immunoprecipitation from membrane fractions of AKT8 cells
[2] = target: GST fusion of the PKB C-terminal regulatory domain (GST-PKBCter, pGST-PKBCter) (human) [GST: P08515]; assay: co-immunoprecipitation from the cytosolic fraction of COS cells
[3] = target: GST fusion of the PKB C-terminal regulatory domain (GST-PKBCter, pGST-PKBCter) (human) [GST: P08515]; assay: anti-Flag co-immunoprecipitation from the cytosolic (S100) fraction of COS-1 cells, anti-GST blot
[4] = target: GST fusion of the PKB C-terminal regulatory domain (GST-PKBCter, pGST-PKBCter) (human) [GST: P08515]; assay: anti-Flag co-immunoprecipitation from total COS-1 cell extract in high detergent (NP40, 1%) lysis buffer, anti-GST blot
[5] = target: GST-CTMPs fusion protein (pGST.CTMPs) (human) (UniProt Q5T1C6); assay: eukaryotic GST pull-down from co-transfected COS-1 cells, low, medium and high stringency; also after pervanadate stimulation

binding [2] | binding [3] | binding [4] | binding [5] | Substance | binding [1]
– | – | – | – | FLAG-CTMP (Flag tagged CTMP, form CTMPL or CTMPs not stated) (from UniProt Q5T1C6 1-240) | binds
binds | binds | binds | binds | Flag epitope tagged CTMPs (F.CTMPs; CTMP starting at the natural ATG of the cDNA) (from UniProt Q5T1C6 1-240) | –
